{
  "source": "patent US10821104B2",
  "about": "“Five-membered heterocyclic amides WNT pathway inhibitor” (SUZHOU SINOVENT PHARMACEUTICALS CO., LTD., priority 2015, dated 2020)",
  "experiment": "In vivo PK in Balb/c mice",
  "conditions": "IV dose 5 mg/kg, male Balb/c mice",
  "protocol": "Metabolic stability and pharmacokinetic characteristics of REX-P-7 were detected in human and mouse liver microsomes and in Balb/c mice, respectively.\nMethod of PK experiment: 18 male Balb/c mice were divided into 2 groups, 9 animals in each group. Group 1 was administered intravenously with REX-P-7 at a dose of 5 mg/kg. Group 2 was administered orally with REX-P-7 at a dose of 10 mg/kg. Blood samples (100 μL) for PK analysis were collected into EDTA microtainers (K2 EDTA, the final concentration in blood sample is 0.25 mg/mL) from retro orbital plexus at pre-dose, 0.083, 0.25, 0.5, 1, 2, 4, 8, 24 hours post-dosing for PO and IV groups. Immediately after collection, blood collection tubes were gently inverted at least 5 times, ensuring complete mixing, then immediately placed on ice. The blood was centrifuged at 8000 rpm for 5 min at 4° C. to separate the plasma from the blood cells. After separation, 35 μL plasma was transferred into clean tube labeled by the compound name, animal number and timepoint. Plasma was stored at −80° C. until analysis.",
  "note": "At least one read-out could not be matched to a standard name with certainty.",
  "data": [
    {"smiles": "Cc1cc(-c2ncc(CNC(=O)c3cc(-c4ccccc4)on3)cc2C)ccn1", "note": "[REX-P-7, N-((2′,3-dimethyl-[2,4′-bipyridin]-5-yl)methyl)-5-phenylisoxazole-3-carboxamide]", "values": [
      {"measurement": "Vz/F", "result": 0.21, "unit": "L/kg"}
    ]}
  ]
}
